System: CD19+ Raji cells (lymphoma cell line)
Assay: Flow cytometry for FL on hapten-labeled Raji cells
Assay type: cell-based

CCCCCCCCCCCCCCCC(=O)OCC(COP(=O)(O)OCCNC(=S)Nc1ccc2c(c1)C(=O)OC21c2ccc(O)cc2Oc2cc(O)ccc21)OC(=O)CCCCCCCCCCCCCCC (centres unmarked) [FL-DHPE, N-(Fluorescein-5-Thiocarbamoyl)-1,2-Dihexadecanoyl-sn-Glycero-3-Phosphoethanolamine]
levels of FL compared to cells treated with the antiCD19 antibody (5 μM FL-DHPE overnight): higher
presence of FL by flow cytometry (overnight 5 μM FL-DHPE or 20 min antiCD19 antibody labeled with FITC, compared to untreated control cells): positive shift

— patent US20230172981A1, “METHODS AND COMPOSITIONS FOR STIMULATION OF CHIMERIC ANTIGEN RECEPTOR T CELLS WITH HAPTEN LABELLED CELLS” (Seattle Children's Hospital (dba Seattle Children's …, priority 2020, published 2023)
